This passage reports binding results from publication PMC7865074.

Chains of the proteins cited; added tags and fusions are not shown. Residues count along the entry.
UniProt Q6P9H4, residues 211-293: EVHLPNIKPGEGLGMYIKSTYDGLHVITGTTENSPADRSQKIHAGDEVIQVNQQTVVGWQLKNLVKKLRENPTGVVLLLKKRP

The target of this experiment is biotinylated WNV NS5 PBM peptide (West Nile virus). Put plainly: condition: BI < 0.15 (threshold for a significant interaction 0.2); holdup assay (automated high-throughput chromatography); biotinylated NS5 PBM peptide as bait against 259 human PDZ domains expressed in E. coli; read-out binding intensity (BI), mean of replicates; BI threshold 0.2 for a significant interaction.

Results are given in words; binding and its absence hold for the method and conditions named.

Consider “Connector enhancer of kinase suppressor of ras 3, PDZ domain (holdup construct) (from UniProt Q6P9H4 211-293) (domain or fragment)”, for which the binding result was “no binding”.
